In PMC2667391:
These are yes or no findings as the source states them, for the method shown. In cells and extracts the contact can be indirect. Binding calls can cover weak binding; strength is not graded here. Where a sequence is shown, tags or fusion partners need not be part of it.

Molecular target: T1, Myc-tagged MAP1S (full length, from pUHD10-3) (UniProt Q66K74)
T1 sequence: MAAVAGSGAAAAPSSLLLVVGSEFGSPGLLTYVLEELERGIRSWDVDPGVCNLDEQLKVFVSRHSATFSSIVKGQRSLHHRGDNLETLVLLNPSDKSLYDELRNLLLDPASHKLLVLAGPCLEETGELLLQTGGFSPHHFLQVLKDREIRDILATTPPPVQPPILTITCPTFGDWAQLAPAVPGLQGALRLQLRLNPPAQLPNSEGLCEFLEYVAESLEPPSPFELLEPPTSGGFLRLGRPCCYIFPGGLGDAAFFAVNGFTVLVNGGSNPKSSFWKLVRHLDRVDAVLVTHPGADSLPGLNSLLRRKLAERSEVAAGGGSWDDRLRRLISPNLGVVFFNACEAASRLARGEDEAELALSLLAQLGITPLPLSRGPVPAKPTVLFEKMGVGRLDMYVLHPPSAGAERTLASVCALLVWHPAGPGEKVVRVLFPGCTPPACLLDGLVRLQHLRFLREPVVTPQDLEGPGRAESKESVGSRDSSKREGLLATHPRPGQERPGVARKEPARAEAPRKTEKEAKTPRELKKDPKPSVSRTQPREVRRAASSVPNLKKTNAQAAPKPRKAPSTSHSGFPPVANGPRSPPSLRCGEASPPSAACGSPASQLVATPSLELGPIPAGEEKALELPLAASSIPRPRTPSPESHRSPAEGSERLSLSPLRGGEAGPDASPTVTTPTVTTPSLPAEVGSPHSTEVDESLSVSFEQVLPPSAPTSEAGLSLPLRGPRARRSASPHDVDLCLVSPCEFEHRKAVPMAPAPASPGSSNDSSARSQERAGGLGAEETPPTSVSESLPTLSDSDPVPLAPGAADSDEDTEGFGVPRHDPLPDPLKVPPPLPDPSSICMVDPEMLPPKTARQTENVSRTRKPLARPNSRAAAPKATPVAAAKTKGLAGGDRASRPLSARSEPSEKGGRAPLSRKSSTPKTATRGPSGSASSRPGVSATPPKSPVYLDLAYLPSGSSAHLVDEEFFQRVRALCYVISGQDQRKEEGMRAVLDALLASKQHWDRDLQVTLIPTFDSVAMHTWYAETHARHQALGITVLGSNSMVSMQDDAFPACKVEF
Assay: co-IP; HepG2 cells transfected with pcDNA3mim and/or pUHD10-3 plus pUHD15-1; 24 h after transfection lysates on anti-c-Myc column (ProFound c-Myc Tag IP/Co-IP Kit); eluates blotted with anti-mimitin and anti-Myc antibodies

- binding: binds
Substance: mimitin overexpressed from pcDNA3mim (human)
